Reference: PubChem BioAssay AID1347423 (Functional Genomics Laboratory (NCATS/FGL), 2020)
Screen size: about 52,000 sequences; about 210 (0.4%) were called active.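 Rule for the calls: active = gene whose silencing raises cell survival under the drug, median off-target-corrected z-score across its silencing RNAs 2 or more; inactive = the rest.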 This is one part of the list.

Experiment: Resistance to Poly (ADP-Ribose) Polymerase inhibitor: Gene Identification via Genome-wide siRNA Screen
Conditions: mouse BRCA2 R2336H ES cells, olaparib, CellTiter-Glo viability; active compounds read high
Procedure, shortened: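 Mouse BRCA2 R2336H ES cells were reverse-transfected with siRNA (20 nM final), treated at 48 h with 500 nM olaparib, and read by CellTiter-Glo after 72 h. Scores: MAD-based z per siRNA, median per gene, seed off-target correction.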

Sequence	z-score
GAGUCCUUGGUACUUUUCCTT against Olfr166	inactive: 0.144
CCCAGAACAUCACAUGGGUTT against Olfr464	inactive: -0.657
GGCUGACUUUCUGUCACAGTT against Olfr655	inactive: -0.809
GAAGGUGAAGUGCAGGAAGTT against Fxyd7	inactive: -0.353
GCCUUUGAUUUGAUUUCAUTT against Olfr1047	inactive: -0.68
GGUUUGAAUUCAAGUUCAUTT against Klhl5	inactive: 0.751
GCAGUGUAAUGUGGCCUACTT against Rorc	inactive: 0.488
GCCAUUACCCAAGAACUUUTT against BC048390	inactive: 0.73
GGAUAAUAGGAACAAUCUGTT against Sval1	inactive: 1.44
GGCUGAGCUGCGCAACAAATT against Gas8	inactive: -0.728
GGAGGAGGACUCAAUCUCATT against Hps5	inactive: 0.518
GGAUCUGCCUACACCUACATT against BC061928	inactive: -1.98
CGUUAGUCUGUGAAUGCACTT against 2310044H10Rik	inactive: 0.39
GCUAUGUCAUAGUUCAGCCTT against 2410004A20Rik	inactive: 0.26
CCCUGGAUGAAAAUGACAATT against Cdh24	inactive: 0.414
CGAGCUAACAAACUUGAACTT against Foxn2	inactive: -0.646
CCAAUGGUCAGGAGUGUAGTT against Prpsap2	inactive: -2.93
GCAAAUCCCAGCUCAAUGUTT against BC005471	inactive: -0.742
GCAAAAAGGCAGUAUUCUATT against 2410012H02Rik	inactive: 1.67
GGACAGAAAGGUACCCUUATT against Slc30a5	inactive: 0.0285
CCAUAAGCUACCAUUUCGATT against Mcsp	inactive: 0.148
GGGACUCACAAUUGUAGAATT against Efemp1	inactive: 0.321
CCGGUAUUUAGGAACUGCCTT against Irak2	inactive: 0.74
GCCUCUGGCAGAGAAAAGATT against 4930579K19Rik	inactive: 0.164
GGACAUCUAACAAAGCUCUTT against A130070M06	inactive: -1.63
CCAGCUUUUCCGAAUCAAUTT against Galnt7	inactive: 0.473

Sequence	z-score
CCAAUAUUUGGGAUACUGGTT against Sacm1l	inactive: 0.486
CCGUGGAACUUAAAUAGUUTT against Pard6g	inactive: 0.448
GGAGCAGCAUCCACACUUATT against E230015B07Rik	inactive: -1.74
GGAGAGAAAUUUGACACUCTT against Mgrn1	inactive: 1.23
GCGAUGGCUAUUUUGAUUGTT against Nfkbib	inactive: 0.614
GGCUGCCUGUGCUAAAAUGTT against 1810017N16Rik	inactive: -1.14
GGAUCUGACAUGUUGUAUATT against Fshr	inactive: 0.124
GGCUACAGCCGUCAAAGAUTT against R74862	inactive: 0.545
GGUAGAUUAGCUGAUCCCATT against 2310057J18Rik	inactive: -1.51
GGCAGUUUGUUAAUGAAUGTT against Pcsk1	inactive: 0.648
GCUACAUUCAGGAACCACATT against 2810449C13Rik	inactive: -1.38
GGAUUUGGUGAACAUCCGUTT against 0610039J04Rik	inactive: -0.0216
GCCAAUGAGAGUAGGAAAGTT against Elovl3	inactive: 0.627
GGAAGCUAAGAAGAUGGAGTT against Ripk4	inactive: -0.347
CCUAAAGCUUGGCAACCCATT against Vapb	inactive: 1.08
GGUGCUGAAGAUGCUGACGTT against Zfp503	inactive: 1.33
GGCUUUUUCCACAUGUGCCTT against Olfr514	inactive: -0.203
GGAGUGUUACUAGAUGUCCTT against 9830002I17Rik	inactive: -2.51
CGUCAACAGGUUUGCUGUGTT against Gbx1	inactive: 1.17
GGGAAAAAGGAGAACUUCUTT against 1700026D08Rik	inactive: 0.955
GGAGAAGCAUAAAACAGUUTT against Zfpn1a5	inactive: -1.09
GCAUUCUAAUCUCUCAUAATT against 2300006N05Rik	inactive: 0.59
CGUGAGAGAUACUUUUUAGTT against Rps6ka5	inactive: 0.53
CCUACUUCCCGUCAUUCCUTT against 1110039B18Rik	inactive: 0.3
CGUUUGCUGGGUAUCAAUATT against Aldrl6	inactive: 0.592
CCAACAGGCAUAUGCAUAUTT against Ddx5	inactive: -1.27

Sequence	z-score
GGCCUCAGCUCACAACAAATT against Sf3b4	inactive: -3.13
GGAACCACUUAUUUAUUUCTT against Gba2	inactive: 0.94
GGUAGUGACUGUGCUAUCGTT against Gpr35	inactive: -2.28
GGUGGUAGUUAAUAAAGCUTT against Catnb	inactive: -1.09
GGUGGAACAGGCAGAAUUCTT against Syn2	inactive: 1.49
GGUGGCCGUGAAGAAGAUCTT against Mapk4	inactive: 0.23
GCACUCCUGUCAUUCGUGUTT against Gnaq	inactive: 1.13
GGAAGAAGCUAGAACAGGATT against Add2	inactive: -0.877
CCCGAUUCCCACUUAAAACTT against Pcdhga3	inactive: 0.672
GGAGAAAGAAGAGCUAUGATT against Pla2g12b	inactive: -0.386
GGAACGAGACAGAAUGGUCTT against 4921505C17Rik	inactive: -0.41
CGGAGUUGGAUGUUAUUCUTT against Mlf1ip	inactive: -1.07
GACCCUUGUUCUUAGCCUUTT against Defcr-rs2	inactive: -0.384
GGUAUUAGUCCACUUAGGATT against 2810021B07Rik	inactive: 0.0144
CACGGUACAGUACGAUUGATT against Dscr1l1	inactive: 0.0751
GGAAUGUCCACAUUUUGUATT against Tigd5	inactive: 0.00592
CCACUGACAUUUUUCAAACTT against Tagln3	inactive: 1.01
CGGGUAAUAUUCUUUUCAATT against Rex2	inactive: -0.00137
GGAAGUUUACAGCUUUGAATT against 4933417K05Rik	inactive: 1.21
GGAGCGUACCAUGAUCGAUTT against Parvb	inactive: -0.584
CGAAGACACGCUACGAAGATT against Minpp1	inactive: 0.934
GGUGUUCCAGUUCUCAAAGTT against 2210409B01Rik	inactive: 0.665
CCCUCACUAUAACACUAUUTT against Six5	inactive: -0.0485
GCUGAUAUGCACAAGAUGGTT against Gps1	inactive: -2.63
GCCUUAAGUGUUCAUGUAATT against Vhlh	inactive: 2.01
GGCCCUUAAGAGAACUCUUTT against Olfr1046	inactive: 1.31

Seven entries from above, as comma-separated lines.
Sequence,z-score
GCCAAUGAGAGUAGGAAAGTT against Elovl3,inactive: 0.627
GGAAGCUAAGAAGAUGGAGTT against Ripk4,inactive: -0.347
CCUAAAGCUUGGCAACCCATT against Vapb,inactive: 1.08
GGUGCUGAAGAUGCUGACGTT against Zfp503,inactive: 1.33
GGCUUUUUCCACAUGUGCCTT against Olfr514,inactive: -0.203
GGAGUGUUACUAGAUGUCCTT against 9830002I17Rik,inactive: -2.51
CGUCAACAGGUUUGCUGUGTT against Gbx1,inactive: 1.17

Further records follow:

Sequence	z-score
CCCGAAUGCUGCUGUAUACTT against D430018P08	inactive: -1.3
ACCGUUUUUAAACCUCUGATT against Ociad2	inactive: -0.58
GGGAUAGCUCUAGUAUAUUTT against Slc24a2	inactive: -0.462
GGAAAGGUUGUUAUUGAUGTT against Psmd14	inactive: 0.982
GCACAUGGGAGACUAUGAATT against Efcbp2	inactive: 0.443
GGACUUUAAGUGAGAAUCUTT against B630019A10Rik	inactive: -0.812
GGACUCUUUCAUAAGCAUATT against Etv5	inactive: 4.3
CGCGUAACUCCUAUGUAGUTT against G6pd2	inactive: 0.725
GGGUGACGAUAUCGAAAUGTT against 2900093B09Rik	inactive: -0.499
GGUCCAAGAGGAAAGACAATT against Adarb2	inactive: 0.481
GCACGUCAGAAUCUCCAGATT against Pln	inactive: -0.75
GGCCAAAUAGCACUAAAGUTT against Ttll4	inactive: 0.474
CCUGAUAGGCCUAAACCUUTT against 5033425B17Rik	inactive: 0.762
CCUCCUUAUCCAUAAUAUUTT against Slc35a3	inactive: 0.771
GGACUCCUAUGUAGGUGAUTT against Actc1	inactive: -0.873
GGAUAGAUCCUUGAAAAAGTT against Tmprss7	inactive: -0.15
GGUUACCUGGGCAUGGGAATT against 4732465J04Rik	inactive: -2.24
GCAACACGGCGGAAUAAAGTT against ORF19	inactive: -1.47
GCCUGUAAAGGUGGCUAAGTT against Narfl	inactive: -2.5
CGGUUAAAUGAUUUUGCUATT against Cox5a	inactive: 0.302
GGCAUUUUCAUGUGCUUUGTT against Wdhd1	inactive: -0.517
CCAUGUUCCUGGCAUAUAUTT against Opn4	inactive: -0.921
GGAGAACAGCAGCCUUUGUTT against 1100001D10Rik	inactive: -3.17
GGUCGGCAAUAUCCUAUUUTT against BC017545	inactive: -1.57
GGGUUGUGGCUGCUACUAUTT against Pira2	inactive: -0.681
CCAGACUCCUCUUAGAAGGTT against B230218L05Rik	inactive: 1.12

Nothing new here: entries from further up.
Sequence	z-score
GGAAAGGUUGUUAUUGAUGTT against Psmd14	inactive: 0.982
GCACAUGGGAGACUAUGAATT against Efcbp2	inactive: 0.443
